In US20030236218A1, “Aryl phosphate derivatives of d4T with selective activity against adenovirus and HIV” (priority 2002, published 2003):
Some entries share one result that the patent states for a list of compounds. At least one compound was matched to its structure with a doubt left.

Assay: Pharmacokinetic studies in mice, intravenous administration
Type: in vivo, Balb/c mice
Conditions: after i.v. 100 mg/kg compound 113

Compound | time to complete metabolism in vivo [min]
COC(=O)[C@H](C)NP(=O)(OC[C@@H]1C=C[C@H](n2cc(C)c(=O)[nH]c2=O)O1)Oc1ccc(Br)cc1 (some centres unmarked) | ≤ 30
COC(=O)[C@H](C)NP(=O)(OCC1C=CC(n2cc(C)c(=O)[nH]c2=O)O1)Oc1ccc(Br)cc1 (some centres unmarked) | ≤ 30
